Results are given in words; binding and its absence hold for the method and conditions named. Some entries that bind do so weakly or less than the wild type.

Amino acid sequences for entries named in this document (tags omitted). Residues count along the entry.
UniProt P68082, residues 2-154: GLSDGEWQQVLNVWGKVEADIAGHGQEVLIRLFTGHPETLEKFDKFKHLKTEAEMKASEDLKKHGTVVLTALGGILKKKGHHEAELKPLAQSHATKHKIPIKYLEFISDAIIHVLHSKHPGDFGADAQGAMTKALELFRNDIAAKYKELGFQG

The source of these data is patent publication US20260158076A1.

The target in test [1] is Fmoc-DDIKVAV self-assembled peptide hydrogel. Nature of the test: SAXS of hydrogel and myoglobin:hydrogel samples (indirect, structural).
The target is the same in test [2]. Kind of test: TEM, FTIR and CD of hydrogel with and without myoglobin (indirect, structural).

“horse skeletal muscle myoglobin (Equus caballus) (from UniProt P68082 2-154)”: the binding entry in test [1] and in test [2] was “binds” in each case.
